PubChem BioAssay AID1224828, NIAID, 2016

Test: 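Regulators linking TLR4 signalling to p65 nuclear translocation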 (primary screen)
Cells: mouse RAW264.7 G9 macrophage reporter cells (GFP-p65, Tnf promoter-mCherry)
Reagent: siRNA pool against mouse genes, 100 nM
Time to read-out: 2 days siRNA transfection, then 40 min LPS before fixation
Treatment: LPS (Salmonella minnesota R595) at 10 ng/ml
Read-out: 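Microscopy ratio of nuclear to perinuclear-ring GFP-p65 signal, scaled to the plate median; gene score is the average of two replicate robust z-scores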
Reading the numbers: p65 translocation robust z-score: higher = more nuclear NF-kappaB p65 after LPS than the plate median; nuclear/cytoplasmic p65 ratio: higher = more nuclear NF-kappaB p65
Call rule: 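Active if robust z is above 3.3 (negative regulators) or below -1.56, the Tlr4 control median (positive regulators); activity score 50 or more; control wells not called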
Meaning of the calls: active = hit (p65 shift raised or lowered); inactive = no clear change
In all, the deposit lists about 17,000 reagents; below is a part drawn at random. Of all reagents, 762 (4.5%) are marked active. 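Active calls include both raised and lowered p65 entry, mostly lowered; wells with fewer than 50 cells lack a z-score.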 The raw values are shown without normalisation. Entries without a mark were called inactive.

Which result is listed for Nr2f1?
p65 translocation robust z-score: 1.65; nuclear/cytoplasmic p65 ratio, rep 1: 1.63; nuclear/cytoplasmic p65 ratio, rep 2: 1.67; low cell count flag: enough cells to score

What did the screen give for Ugt2b1?
p65 translocation robust z-score: -0.28; nuclear/cytoplasmic p65 ratio, rep 1: 1.55; nuclear/cytoplasmic p65 ratio, rep 2: 1.59; low cell count flag: enough cells to score

What is on record for Aggf1?
p65 translocation robust z-score: 0.35; nuclear/cytoplasmic p65 ratio, rep 1: 1.6; nuclear/cytoplasmic p65 ratio, rep 2: 1.73; low cell count flag: enough cells to score

For A330035P11Rik, what does the deposit list?
p65 translocation robust z-score: 1.91; nuclear/cytoplasmic p65 ratio, rep 1: 1.48; nuclear/cytoplasmic p65 ratio, rep 2: 1.79; low cell count flag: enough cells to score

What did the screen give for Senp8?
nuclear/cytoplasmic p65 ratio, rep 1: 1.24; nuclear/cytoplasmic p65 ratio, rep 2: 1.05; low cell count flag: fewer than 50 cells per well; well left out of scoring

For Cdk18, what was measured?
nuclear/cytoplasmic p65 ratio, rep 1: 1.63; nuclear/cytoplasmic p65 ratio, rep 2: 1.33; low cell count flag: fewer than 50 cells per well; well left out of scoring

With Cebpe, how do the results read?
p65 translocation robust z-score: 0.54; nuclear/cytoplasmic p65 ratio, rep 1: 1.59; nuclear/cytoplasmic p65 ratio, rep 2: 1.4; low cell count flag: enough cells to score

How did the screen score Arl11?
p65 translocation robust z-score: 1.13; nuclear/cytoplasmic p65 ratio, rep 1: 1.74; nuclear/cytoplasmic p65 ratio, rep 2: 1.99; low cell count flag: enough cells to score

What is on record for Trim11?
nuclear/cytoplasmic p65 ratio, rep 1: 1.25; nuclear/cytoplasmic p65 ratio, rep 2: 1.2; low cell count flag: fewer than 50 cells per well; well left out of scoring

With Retreg2, what was measured?
p65 translocation robust z-score: 1.31; nuclear/cytoplasmic p65 ratio, rep 1: 1.55; nuclear/cytoplasmic p65 ratio, rep 2: 1.76; low cell count flag: enough cells to score

What is on record for En1?
p65 translocation robust z-score: -0.6; nuclear/cytoplasmic p65 ratio, rep 1: 1.35; nuclear/cytoplasmic p65 ratio, rep 2: 1.32; low cell count flag: enough cells to score

With Prl7a1, what does the deposit list?
p65 translocation robust z-score: 1.42; nuclear/cytoplasmic p65 ratio, rep 1: 1.48; nuclear/cytoplasmic p65 ratio, rep 2: 1.38; low cell count flag: enough cells to score

With Jarid2, how do the results read?
nuclear/cytoplasmic p65 ratio, rep 1: 1.22; nuclear/cytoplasmic p65 ratio, rep 2: 1.16; low cell count flag: fewer than 50 cells per well; well left out of scoring

For Ecsit, how do the results read?
p65 translocation robust z-score: 0.21; nuclear/cytoplasmic p65 ratio, rep 1: 1.4; nuclear/cytoplasmic p65 ratio, rep 2: 1.31; low cell count flag: enough cells to score

For Papolb, how do the results read?
p65 translocation robust z-score: -0.86; nuclear/cytoplasmic p65 ratio, rep 1: 1.32; nuclear/cytoplasmic p65 ratio, rep 2: 1.1; low cell count flag: enough cells to score

For Map4k4, how do the results read?
p65 translocation robust z-score: 0.11; nuclear/cytoplasmic p65 ratio, rep 1: 1.48; nuclear/cytoplasmic p65 ratio, rep 2: 1.39; low cell count flag: enough cells to score

For Hoxd9, what was measured?
p65 translocation robust z-score: -0.04; nuclear/cytoplasmic p65 ratio, rep 1: 1.36; nuclear/cytoplasmic p65 ratio, rep 2: 1.44; low cell count flag: enough cells to score

How did the screen score Nlrp2?
p65 translocation robust z-score: -0.48; nuclear/cytoplasmic p65 ratio, rep 1: 1.41; nuclear/cytoplasmic p65 ratio, rep 2: 1.3; low cell count flag: enough cells to score

For Samd12, what was measured?
nuclear/cytoplasmic p65 ratio, rep 1: 1.37; nuclear/cytoplasmic p65 ratio, rep 2: 1.63; low cell count flag: fewer than 50 cells per well; well left out of scoring

For Cd40, what was measured?
p65 translocation robust z-score: 0.07; nuclear/cytoplasmic p65 ratio, rep 1: 1.55; nuclear/cytoplasmic p65 ratio, rep 2: 1.51; low cell count flag: enough cells to score

Which result is listed for Or10h1?
p65 translocation robust z-score: 0.11; nuclear/cytoplasmic p65 ratio, rep 1: 1.53; nuclear/cytoplasmic p65 ratio, rep 2: 1.71; low cell count flag: enough cells to score

With Atp5mg, how do the results read?
p65 translocation robust z-score: 0.98; nuclear/cytoplasmic p65 ratio, rep 1: 1.47; nuclear/cytoplasmic p65 ratio, rep 2: 1.72; low cell count flag: enough cells to score

With Med16, how do the results read?
p65 translocation robust z-score: 0.75; nuclear/cytoplasmic p65 ratio, rep 1: 1.46; nuclear/cytoplasmic p65 ratio, rep 2: 1.23; low cell count flag: enough cells to score

What is on record for Dcaf12l2?
p65 translocation robust z-score: 1.94; nuclear/cytoplasmic p65 ratio, rep 1: 1.69; nuclear/cytoplasmic p65 ratio, rep 2: 1.74; low cell count flag: enough cells to score

What did the screen give for Zbtb21?
nuclear/cytoplasmic p65 ratio, rep 1: 1.17; nuclear/cytoplasmic p65 ratio, rep 2: 1.04; low cell count flag: fewer than 50 cells per well; well left out of scoring

For A530021J07Rik, what was measured?
p65 translocation robust z-score: 0.18; nuclear/cytoplasmic p65 ratio, rep 1: 1.37; nuclear/cytoplasmic p65 ratio, rep 2: 1.58; low cell count flag: enough cells to score

Which result is listed for Pmf1?
nuclear/cytoplasmic p65 ratio, rep 1: 1.53; nuclear/cytoplasmic p65 ratio, rep 2: 1.1; low cell count flag: fewer than 50 cells per well; well left out of scoring

Already shown: an excerpt of the list.
Cd40 | p65 translocation robust z-score = 0.07; nuclear/cytoplasmic p65 ratio, rep 1 = 1.55; nuclear/cytoplasmic p65 ratio, rep 2 = 1.51; low cell count flag = enough cells to score
Or10h1 | p65 translocation robust z-score = 0.11; nuclear/cytoplasmic p65 ratio, rep 1 = 1.53; nuclear/cytoplasmic p65 ratio, rep 2 = 1.71; low cell count flag = enough cells to score
Atp5mg | p65 translocation robust z-score = 0.98; nuclear/cytoplasmic p65 ratio, rep 1 = 1.47; nuclear/cytoplasmic p65 ratio, rep 2 = 1.72; low cell count flag = enough cells to score
